Results published in PubChem BioAssay AID1508600 (Functional Genomics Laboratory (NCATS/FGL), 2020).
In all, about 53,000 sequences went through this assay and about 3,700 (7%) were called active.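 The calls were made as follows: active = gene knockdowns whose robust z-score for IL-1 alpha signal is at least 2 or at most -2, so actives lie on both sides; inactive = the rest.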 Some of the results follow.

Experiment: Components of the Cytosolic LPS Sensing Pathway: Gene Identification via Genome-wide siRNA Screen;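 also: robust z of the log signal after scaling to non-targeting control siRNA wells of the plate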
Conditions: RAW264.7 macrophages, IL-1a HTRF, actives lie on both sides, screened at 100 nM (by protocol), cells primed 5 h with Pam3CSK4 first
How it was run: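 Cells (RAW264.7, 1×10^4 per well) were transfected with siRNA at 100 nM and cultured 48h at 37 degrees C. Pam3CSK4 was added for 5 hours; LipidA transfection followed for 24 hour. IL-1a was then measured by HTRF.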

Row | Sequence | z-score
1 | GGAAGCAUUGAUUUUCAUCTT against Prok2 | inactive: 1.82
2 | CCCUUAGGGAGUGCUGUGATT against Gc | inactive: -1.85
3 | GGAAUGGUAGGAAUUCUUCTT against Yipf5 | inactive: 0.418
4 | GGACCACAGGGUCAAUUUCTT against Icam5 | inactive: -0.0684
5 | CCAUACCGAUCAAAUUCCCTT against Pfn2 | inactive: -0.596
6 | GGGACAUGGGAAGAACUCUTT against Gpr87 | inactive: -0.674
7 | CCAGUAAGUUGCAUUCGAATT against Defb8 | inactive: 0.675
8 | GGAAAGGAAGAAGAAAUGATT against Rab13 | inactive: -0.578
9 | GGCAGAAUAAUAAUCCACATT against Ovol1 | inactive: -0.0992
10 | CCUAGGGUAUUCAAUCAUGTT against Nfya | inactive: -0.908
11 | GGGUUUUUUUUUCCUUGAATT against Smndc1 | inactive: -0.313
12 | GCUAAGAACAUUCACAUAATT against Pon3 | inactive: -0.293
13 | GCCUUUAGUUGGUUUAGUATT against Zfp799 | inactive: 0.0447
14 | GGAAGACGAAUUCUUAAGUTT against H2-M10.6 | inactive: 0.0529
15 | GGACCGUCUGUCCUUUGUCTT against Nectin2 | inactive: 0.618
16 | CGUUGUCAUUCACAAGUGATT against Tmprss11e | active: 3.02
17 | CGUACCAGAUGAGCUAAGUTT against Zfp513 | active: 2.56
18 | CCAUAGAGAGUGCAGGUGATT against Mrpl39 | inactive: 0.677
19 | GGAUAUUUGCUUCUUUCACTT against A330008L17Rik | inactive: 0.596
20 | GGCAACAUCAAAGAAAGGATT against Rad51b | inactive: -0.0241
21 | GGCUCUCCAACUGUAUGAATT against Hexdc | inactive: 1.53
22 | GCUCCUACAGAGAAUAAGATT against Eny2 | inactive: -1.7

Row | Sequence | z-score
23 | GGAAGAUACAAGUCUUUUUTT against Akap12 | inactive: 1.85
24 | GCGGCUACGUGUUUGACUATT against Csnk1g2 | inactive: -0.735
25 | GGAGAUUGUGAGAGCCAUGTT against Kcnab3 | inactive: -0.753
26 | GGAAGAUUUUUCAAGAAAGTT against Dcun1d5 | inactive: 0.386
27 | GGACUACAUAAACUUGUACTT against Nme5 | inactive: -1.03
28 | GGGCUGUCUAAGAAUGCAATT against Nlrp14 | active: -2.08
29 | GGAUGAUGGAGGGAAACUUTT against Fam221a | inactive: -0.357
30 | CCAAGAGAUUGCUAAUUGCTT against Runx1t1 | inactive: -0.695
31 | GGUGGUAGAACCACUGAAGTT against Pxk | inactive: 0.673
32 | GGCACUCCUUCUCAGUUGCTT against Chek2 | inactive: -0.891
33 | GCAAAUAUUACCUGAAAGUTT against Zbtb48 | inactive: 0.0124
34 | GGCCUUAGUAUUCUGCCUCTT against Nuak1 | inactive: 0.395
35 | GGACCCUCCAACUGUAAAUTT against Meg3 | inactive: 0.3
36 | CGGCGACUUCUUCAGCUAUTT against Aldh2 | inactive: 0.774
37 | GGAGAAGAAGCAGAGAGAATT against Ccdc61 | inactive: 0.181
38 | GCGAUAGAAGCACUCCAAGTT against Bub1b | inactive: -0.485
39 | CCCUUCACAACUUCUUAAUTT against Olfr872 | inactive: 1.4
40 | GCUUCGUAAAGUUUGCACUTT against Exosc10 | inactive: 0.112
41 | GGUCAUUGAUCUCAGCAACTT against Optc | inactive: -0.427
42 | CCAGCCUCUUCUAAUACACTT against Preb | inactive: -0.413
43 | GCUGCUACGCCAAACUUAATT against Ssx2ip | inactive: -0.202
44 | GCCAUGUACUCCUUACUGGTT against Mrc1 | inactive: -0.068

For reference, some entries already given.
Row | Sequence | z-score
37 | GGAGAAGAAGCAGAGAGAATT against Ccdc61 | inactive: 0.181
38 | GCGAUAGAAGCACUCCAAGTT against Bub1b | inactive: -0.485

Following part.

Row | Sequence | z-score
45 | GGAUGACAGUGGGAAGAAGTT against Rgp1 | inactive: -1.22
46 | GGCAACUCAUGAACUCUCGTT against Tifab | inactive: 1.32
47 | GGAUAUAUACACGGAGAACTT against Nod2 | inactive: -0.675
48 | CCUAGGGACAUUGGUUAUUTT against Sema4f | active: 2.16
49 | GGGAAAUCUAUUUUUGUGATT against Mob3c | inactive: -1.77
50 | CCCACCUAAAGAGAACAAATT against Bbof1 | inactive: -0.87
51 | CCGUGUGGUCUGAUAAAAGTT against Fbxl8 | inactive: -0.714
52 | GGGUAUUCUGUACCCAGUGTT against Cpsf4l | inactive: -0.273
53 | GCUACUUCGGGAAUUUUACTT against Ttc21a | inactive: -1.16
54 | GGUUUCUGAUUUCAUCAGUTT against Prl5a1 | inactive: 0.35
55 | GCAGCACCUAAUGGGCAAATT against Bcl9l | inactive: 1.86
56 | GCUCGUACAAUGCAUUGCCTT against Thnsl1 | inactive: -0.474
57 | GGAGAUUAGUUACUUCCAGTT against Slc1a7 | active: 3.5
58 | GGACCAGCUGAUAGAAGUCTT against Ap3b2 | inactive: 1.81
59 | GGACGACAAUCGACAAUCGTT against Acta1 | inactive: -0.384
60 | GGGAAAAGAACUUGCAUGUTT against Tmsb4x | inactive: -0.352
61 | GGCACUUUCGGGAAUUCACTT against Nup160 | active: -2.5
62 | GGAAGAGGAGGAAAACUUGTT against Fam135b | inactive: -0.653
63 | GGGACUUCUUGUGAAUGGATT against Mobp | inactive: 0.993
64 | CGAAGUGUGGCUGAUUCAGTT against Hebp2 | inactive: 0.547
65 | GGAAUACCUGCUUUUAUUUTT against Timmdc1 | inactive: 0.947
66 | CCCUUGAAGAUCACUUAGCTT against Apln | inactive: 0.284

Row | Sequence | z-score
67 | GCUGUUUCUACAUCAUCUATT against Nup210 | inactive: 0.739
68 | GCUUAAAUGUUCUCUGUUCTT against Adgrd1 | inactive: -0.601
69 | GGCACUCAAUAAAUAUUUGTT against Tubb5 | inactive: -0.356
70 | GGUGCUAAUCCCAAUUUGATT against Cdkn2c | inactive: 0.262
71 | GGUGUACCAAGCUGUGACATT against Rgmb | inactive: -0.401
72 | GGGAAUUGAUGAAAGCUCUTT against Gigyf2 | inactive: -0.369
73 | CCUGAAGGGUCUGGCAAAATT against Zfp804a | inactive: 0.66
74 | CCCACUGCUCUAUUCAACUTT against Olfr484 | inactive: -0.661
75 | GGAUUUUGAUCUAAUGAGATT against Zfp354c | inactive: 0.366
76 | GGACAGCAAAAAAGAUGUGTT against Myo6 | inactive: -0.446
77 | GCAUUCCAAAUGGUAGACATT against Lgals4 | inactive: -0.357
78 | GGAGCAAGCAUGCAAGGUGTT against Cstf2 | inactive: 0.916
79 | GGAAAAAGAUAGAACCAGATT against Larp1b | inactive: -0.177
80 | GGCAUGGACAUUGAUGACATT against Dnajb1 | inactive: -0.834
81 | GGCAUGUAUCAUUUUGUCATT against Pde12 | inactive: -1.12
82 | GGAUGCAAUCGACAUGGAGTT against Atp5pb | active: 2.71
83 | GGAAAUAAGACCAACAUACTT against Arhgap19 | inactive: 0.0474
84 | GGUGUUGUGAAGUCUUUUGTT against Xk | inactive: 0.859
85 | GGCCAGUCACUAAAAUCACTT against Mbd3l1 | inactive: 0.169
86 | GCGCAGAACAGCCCUAUAATT against Ndufs5 | inactive: -1.27
87 | GGAUCCUUACAAUAACAUUTT against Mmut | active: 2.04
88 | GCUCAUGUUGCUGUUAAUATT against Haus6 | inactive: 0.463

Row | Sequence | z-score
89 | GGCAUUAAGAUCAUUAAGCTT against Myadm | inactive: 0.674
90 | GGAUGUCUGUACAUACAGATT against Tshb | inactive: 0.661
91 | GCGGAAGGUUUACAAUGAUTT against Dyrk1a | inactive: -0.323
92 | CGAGAGAACUCUCACCUAUTT against Spata21 | inactive: -1.13
93 | GGAGGAUGGAGUCAUAUAUTT against Gm773 | inactive: -0.41
94 | GGCAAUUGUGCUAUUGAGUTT against AA986860 | inactive: -1.4
95 | GGAUCUUUUCCAACAAAUATT against Tmsb15a | inactive: -0.612
96 | ACGACGAUCUUUCAGAAGUTT against N4bp2 | inactive: 1.28
97 | GGAUCAUGAGAAUAUCAUCTT against P4hb | inactive: 0.816
98 | GACUUCAGACAAAUAGUGCTT against Lce1i | inactive: -1.24
99 | CCAGAAUGUUACAUGCAGGTT against Vmn2r7 | inactive: -0.241
100 | GGAGAGAACUGAUGAAUCCTT against Sdhaf2 | inactive: -0.26
101 | GCUACCUCUUGCAUGGGAGTT against Bivm | inactive: -0.0737
102 | GCAUCAUUCGCUGUGAUGATT against Trim23 | inactive: -1.55
103 | GGAAGAAAUGCAGUUCUAATT against Nhlrc3 | inactive: 0.145
104 | GGAUAGGGUCCAUCAUGGATT against Rcn3 | inactive: -0.891
105 | GGCAACCUGCUGGUAAUCATT against Adrb3 | active: 3.53
106 | GCAAGAAGGGACACAGUUUTT against Plk1 | inactive: 0.276
107 | GCCGAAGUCGACAAUAAUCTT against Slc22a14 | inactive: -0.13

An excerpt of these results, as tab-separated lines.
Row	Sequence	z-score
74	CCCACUGCUCUAUUCAACUTT against Olfr484	inactive: -0.661
75	GGAUUUUGAUCUAAUGAGATT against Zfp354c	inactive: 0.366
76	GGACAGCAAAAAAGAUGUGTT against Myo6	inactive: -0.446
77	GCAUUCCAAAUGGUAGACATT against Lgals4	inactive: -0.357
78	GGAGCAAGCAUGCAAGGUGTT against Cstf2	inactive: 0.916
79	GGAAAAAGAUAGAACCAGATT against Larp1b	inactive: -0.177
80	GGCAUGGACAUUGAUGACATT against Dnajb1	inactive: -0.834
81	GGCAUGUAUCAUUUUGUCATT against Pde12	inactive: -1.12
82	GGAUGCAAUCGACAUGGAGTT against Atp5pb	active: 2.71
83	GGAAAUAAGACCAACAUACTT against Arhgap19	inactive: 0.0474
84	GGUGUUGUGAAGUCUUUUGTT against Xk	inactive: 0.859
85	GGCCAGUCACUAAAAUCACTT against Mbd3l1	inactive: 0.169
86	GCGCAGAACAGCCCUAUAATT against Ndufs5	inactive: -1.27
87	GGAUCCUUACAAUAACAUUTT against Mmut	active: 2.04
88	GCUCAUGUUGCUGUUAAUATT against Haus6	inactive: 0.463
89	GGCAUUAAGAUCAUUAAGCTT against Myadm	inactive: 0.674
90	GGAUGUCUGUACAUACAGATT against Tshb	inactive: 0.661
91	GCGGAAGGUUUACAAUGAUTT against Dyrk1a	inactive: -0.323
92	CGAGAGAACUCUCACCUAUTT against Spata21	inactive: -1.13
93	GGAGGAUGGAGUCAUAUAUTT against Gm773	inactive: -0.41
94	GGCAAUUGUGCUAUUGAGUTT against AA986860	inactive: -1.4
95	GGAUCUUUUCCAACAAAUATT against Tmsb15a	inactive: -0.612
96	ACGACGAUCUUUCAGAAGUTT against N4bp2	inactive: 1.28
97	GGAUCAUGAGAAUAUCAUCTT against P4hb	inactive: 0.816
98	GACUUCAGACAAAUAGUGCTT against Lce1i	inactive: -1.24
99	CCAGAAUGUUACAUGCAGGTT against Vmn2r7	inactive: -0.241
100	GGAGAGAACUGAUGAAUCCTT against Sdhaf2	inactive: -0.26
101	GCUACCUCUUGCAUGGGAGTT against Bivm	inactive: -0.0737
102	GCAUCAUUCGCUGUGAUGATT against Trim23	inactive: -1.55
103	GGAAGAAAUGCAGUUCUAATT against Nhlrc3	inactive: 0.145
104	GGAUAGGGUCCAUCAUGGATT against Rcn3	inactive: -0.891
